{"source": "PubChem BioAssay AID652248, Drosophila RNAi Screening Center – 2013", "screen": "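Kinases and phosphatases whose loss pushes fly blood cells toward elongated shapes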 (primary screen)", "cells": "cultured Drosophila hemocytes", "knock-down reagent": "long dsRNA against Drosophila genes", "measured": "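Automated microscopy of stained actin, tubulin and nuclei; single-cell shape measures assigned to five reference shape types, giving a score per dsRNA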", "scale": "elongated score: higher = more elongated bipolar cells", "rule for the call": "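Hits show a significant increase of elongated cells; higher rank given where elongated cells rose as other shape types fell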", "note": "This is a random part of 863 reagents. 32 of them (3.7%) count as active. 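Calls also used reproducibility and a similarity ranking whose scores are not deposited; many active genes show only modest elongated scores.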 The numbers tell different reagents against one gene apart. Names joined by + are all predicted targets of the reagent. Not all columns of the deposit are shown. No sequences are given here. The record does not give: the amount of reagent, the time to read-out."}
{"Gene": "CR43670 + grp + CR43671 + 1 more", "reagent": 1, "elongated score, rep 1": 0.05, "activity call": "inactive"}
{"Gene": "Pi3K21B", "reagent": 1, "elongated score, rep 1": -0.18, "activity call": "inactive"}
{"Gene": "puc", "reagent": 1, "elongated score, rep 1": -0.53, "activity call": "inactive"}
{"Gene": "puc", "reagent": 2, "elongated score, rep 1": 0.36, "activity call": "inactive"}
{"Gene": "drl", "reagent": 1, "elongated score, rep 1": -0.27, "activity call": "inactive"}
{"Gene": "drl", "reagent": 2, "elongated score, rep 1": 1.3, "activity call": "inactive"}
{"Gene": "CycT", "reagent": 1, "elongated score, rep 1": -0.53, "activity call": "inactive"}
{"Gene": "CycT", "reagent": 2, "elongated score, rep 1": -0.53, "activity call": "inactive"}
{"Gene": "CycT", "reagent": 3, "elongated score, rep 1": 0.58, "activity call": "inactive"}
{"Gene": "CycE", "reagent": 1, "elongated score, rep 1": 0.47, "activity call": "inactive"}
{"Gene": "CycE", "reagent": 2, "elongated score, rep 1": -0.53, "activity call": "inactive"}
{"Gene": "Cib2", "reagent": 1, "elongated score, rep 1": 0.19, "activity call": "inactive"}
{"Gene": "stg", "reagent": 1, "elongated score, rep 1": -0.08, "activity call": "inactive"}
{"Gene": "stg", "reagent": 2, "elongated score, rep 1": 0.32, "activity call": "inactive"}
{"Gene": "dap", "reagent": 1, "elongated score, rep 1": 0.84, "activity call": "inactive"}
{"Gene": "Argk2", "reagent": 1, "elongated score, rep 1": 0.3, "activity call": "inactive"}
{"Gene": "Argk2", "reagent": 2, "elongated score, rep 1": 0.96, "activity call": "inactive"}
{"Gene": "Argk2", "reagent": 3, "elongated score, rep 1": -0.33, "activity call": "inactive"}
{"Gene": "nmdyn-D6", "reagent": 1, "elongated score, rep 1": 1.12, "activity call": "inactive"}
{"Gene": "tws", "reagent": 1, "elongated score, rep 1": 0.45, "activity call": "inactive"}
{"Gene": "tws", "reagent": 2, "elongated score, rep 1": -0.13, "activity call": "inactive"}
{"Gene": "tws", "reagent": 3, "elongated score, rep 1": 2.11, "activity call": "inactive"}
{"Gene": "Phk-3", "reagent": 1, "elongated score, rep 1": -0.53, "activity call": "inactive"}
{"Gene": "CG42675", "reagent": 1, "elongated score, rep 1": -0.53, "activity call": "inactive"}
{"Gene": "CG42675", "reagent": 2, "elongated score, rep 1": -0.37, "activity call": "inactive"}
{"Gene": "CG4839", "reagent": 1, "elongated score, rep 1": -0.34, "activity call": "inactive"}
{"Gene": "CG4839", "reagent": 2, "elongated score, rep 1": -0.39, "activity call": "inactive"}
{"Gene": "hppy", "reagent": 1, "elongated score, rep 1": 1.87, "activity call": "inactive"}
{"Gene": "hppy", "reagent": 2, "elongated score, rep 1": -0.09, "activity call": "inactive"}
{"Gene": "hppy", "reagent": 3, "elongated score, rep 1": 1.36, "activity call": "inactive"}
{"Gene": "hppy", "reagent": 4, "elongated score, rep 1": -0.53, "activity call": "inactive"}
{"Gene": "CG9961", "reagent": 1, "elongated score, rep 1": -0.24, "activity call": "inactive"}
{"Gene": "CG9961", "reagent": 2, "elongated score, rep 1": 0.05, "activity call": "inactive"}
{"Gene": "CG9961", "reagent": 3, "elongated score, rep 1": -0.16, "activity call": "inactive"}
{"Gene": "Dyrk2", "reagent": 1, "elongated score, rep 1": 1.44, "activity call": "inactive"}
{"Gene": "Dyrk2", "reagent": 2, "elongated score, rep 1": -0.42, "activity call": "inactive"}

Part of the list above in another layout:
| Gene | reagent | elongated score, rep 1 | activity call |
| --- | --- | --- | --- |
| CG42675 | 1 | -0.53 | inactive |
| CG42675 | 2 | -0.37 | inactive |
| CG4839 | 1 | -0.34 | inactive |
| CG4839 | 2 | -0.39 | inactive |
| hppy | 1 | 1.87 | inactive |
| hppy | 2 | -0.09 | inactive |
